Source: patent US9598420B2, “Benzodiazepine bromodomain inhibitor” (GlaxoSmithKline LLC, priority 2009, dated 2017)
Structures can show the parent of a compound that is named as a salt. Some results were stated once for a whole list of compounds, not compound by compound.

The compounds below were run against T1, Bromodomain 2, 3 and 4 (BRD2, BRD3 and BRD4) (assay: Fluorescence Anisotropy Binding Assay). Settings: recombinant human bromodomain 75 nM, fluorescent ligand Reference compound K, best of the three assays, not resolved by target.
T1 construct: fused on or other part: six-His tag at the N-terminal

Row | SMILES | pIC50 in one or more of the BRD2, BRD3 and BRD4 assays
1 | COc1ccc2c(c1)C(c1ccc(Cl)cc1)=NC(CC(=O)NCCc1ccccc1)c1nnc(C)n1-2 (centres unmarked) [Example 2, 2-[6-(4-chlorophenyl)-1-methyl-8-(methyloxy)-4H-[1,2,4]triazolo[4,3-a][1,4]benzodiazepin-4-yl]-N-(2-phenylethyl)acetamide] | ≥ 6.0
2 | COc1ccc2c(c1)C(c1ccc(Cl)cc1)=NC(CC(=O)NCc1ccco1)c1nnc(C)n1-2 (centres unmarked) [Example 4, 2-[6-(4-chlorophenyl)-1-methyl-8-(methyloxy)-4H-[1,2,4]triazolo[4,3-a][1,4]benzodiazepin-4-yl]-N-(2-furanylmethyl)acetamide] | ≥ 6.0
3 | COc1ccc2c(c1)C(c1ccc(Cl)cc1)=N[C@@H](CC(=O)NCCCN(C)C)c1nnc(C)n1-2 [Example 51, 2-[(4S)-6-(4-chlorophenyl)-1-methyl-8-(methyloxy)-4H-[1,2,4]triazolo[4,3-a][1,4]benzodiazepin-4-yl]-N-[3-(dimethylamino)propyl]acetamide formic acid salt] | ≥ 6.0
4 | COc1ccc2c(c1)C(c1ccc(Cl)cc1)=NC(CC(=O)NCCN(C)C)c1nnc(C)n1-2 (centres unmarked) [Example 26, 2-[6-(4-chlorophenyl)-1-methyl-8-(methyloxy)-4H-[1,2,4]triazolo[4,3-a][1,4]benzodiazepin-4-yl]-N-[2-(dimethylamino)ethyl]acetamide] | ≥ 6.0
5 | COc1ccc2c(c1)C(c1ccc(Cl)cc1)=N[C@@H](CC(=O)NCCN(C)C)c1nnc(C)n1-2 [Example 50, 2-[(4S)-6-(4-chlorophenyl)-1-methyl-8-(methyloxy)-4H-[1,2,4]triazolo[4,3-a][1,4]benzodiazepin-4-yl]-N-[2-(dimethylamino)ethyl]acetamide formic acid salt] | ≥ 6.0
